Experimental data published in PMC8544208.
No constants are given. Whether binding was seen depends on the method and setting.

The chains behind the UniProt entries cited, without tags or fusion partners. Where a name states a change or a piece, a line headed by the entry shows the natural chain unless it says otherwise. Residues count along the entry.
UniProt P01031: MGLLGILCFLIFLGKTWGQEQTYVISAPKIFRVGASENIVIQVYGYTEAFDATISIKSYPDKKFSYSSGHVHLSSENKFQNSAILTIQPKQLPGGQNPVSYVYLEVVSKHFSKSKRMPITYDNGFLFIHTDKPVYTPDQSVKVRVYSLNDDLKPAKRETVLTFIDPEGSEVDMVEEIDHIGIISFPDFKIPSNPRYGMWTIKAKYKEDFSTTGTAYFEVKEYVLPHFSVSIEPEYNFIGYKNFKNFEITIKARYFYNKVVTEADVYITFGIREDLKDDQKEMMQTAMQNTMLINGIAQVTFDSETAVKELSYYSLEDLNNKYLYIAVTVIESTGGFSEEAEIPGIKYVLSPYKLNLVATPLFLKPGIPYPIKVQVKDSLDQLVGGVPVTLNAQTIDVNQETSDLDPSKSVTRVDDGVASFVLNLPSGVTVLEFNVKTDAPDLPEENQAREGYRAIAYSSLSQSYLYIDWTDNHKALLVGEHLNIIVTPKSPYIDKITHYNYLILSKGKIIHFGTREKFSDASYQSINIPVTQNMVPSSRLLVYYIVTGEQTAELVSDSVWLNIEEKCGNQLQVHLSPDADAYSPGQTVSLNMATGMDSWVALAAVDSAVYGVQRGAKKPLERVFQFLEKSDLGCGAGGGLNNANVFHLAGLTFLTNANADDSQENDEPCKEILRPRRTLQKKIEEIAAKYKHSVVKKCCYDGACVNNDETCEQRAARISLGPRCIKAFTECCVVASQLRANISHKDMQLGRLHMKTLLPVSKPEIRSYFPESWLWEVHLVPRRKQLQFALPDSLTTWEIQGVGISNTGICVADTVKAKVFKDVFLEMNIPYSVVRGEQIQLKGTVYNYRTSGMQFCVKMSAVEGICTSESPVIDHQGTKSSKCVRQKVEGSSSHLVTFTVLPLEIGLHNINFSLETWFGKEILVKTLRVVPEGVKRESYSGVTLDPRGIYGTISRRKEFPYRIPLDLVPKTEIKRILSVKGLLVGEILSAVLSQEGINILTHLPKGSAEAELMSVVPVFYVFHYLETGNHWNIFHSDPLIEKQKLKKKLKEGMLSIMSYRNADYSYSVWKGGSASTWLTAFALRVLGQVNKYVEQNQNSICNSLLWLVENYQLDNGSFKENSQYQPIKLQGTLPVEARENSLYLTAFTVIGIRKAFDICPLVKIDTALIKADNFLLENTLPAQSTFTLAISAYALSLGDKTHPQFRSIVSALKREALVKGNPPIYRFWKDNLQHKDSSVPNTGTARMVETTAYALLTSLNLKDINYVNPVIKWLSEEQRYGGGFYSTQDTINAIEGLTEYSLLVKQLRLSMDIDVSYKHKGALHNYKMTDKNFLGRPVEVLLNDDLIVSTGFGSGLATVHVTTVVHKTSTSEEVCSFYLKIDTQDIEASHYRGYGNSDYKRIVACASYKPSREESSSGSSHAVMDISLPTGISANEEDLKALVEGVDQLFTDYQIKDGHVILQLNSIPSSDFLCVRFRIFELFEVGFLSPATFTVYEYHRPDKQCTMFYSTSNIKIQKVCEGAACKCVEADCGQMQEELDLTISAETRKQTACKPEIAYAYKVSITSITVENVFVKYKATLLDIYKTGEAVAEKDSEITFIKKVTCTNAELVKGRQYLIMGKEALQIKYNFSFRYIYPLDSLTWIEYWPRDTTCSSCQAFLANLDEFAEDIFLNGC
UniProt P10643, residues 23-843: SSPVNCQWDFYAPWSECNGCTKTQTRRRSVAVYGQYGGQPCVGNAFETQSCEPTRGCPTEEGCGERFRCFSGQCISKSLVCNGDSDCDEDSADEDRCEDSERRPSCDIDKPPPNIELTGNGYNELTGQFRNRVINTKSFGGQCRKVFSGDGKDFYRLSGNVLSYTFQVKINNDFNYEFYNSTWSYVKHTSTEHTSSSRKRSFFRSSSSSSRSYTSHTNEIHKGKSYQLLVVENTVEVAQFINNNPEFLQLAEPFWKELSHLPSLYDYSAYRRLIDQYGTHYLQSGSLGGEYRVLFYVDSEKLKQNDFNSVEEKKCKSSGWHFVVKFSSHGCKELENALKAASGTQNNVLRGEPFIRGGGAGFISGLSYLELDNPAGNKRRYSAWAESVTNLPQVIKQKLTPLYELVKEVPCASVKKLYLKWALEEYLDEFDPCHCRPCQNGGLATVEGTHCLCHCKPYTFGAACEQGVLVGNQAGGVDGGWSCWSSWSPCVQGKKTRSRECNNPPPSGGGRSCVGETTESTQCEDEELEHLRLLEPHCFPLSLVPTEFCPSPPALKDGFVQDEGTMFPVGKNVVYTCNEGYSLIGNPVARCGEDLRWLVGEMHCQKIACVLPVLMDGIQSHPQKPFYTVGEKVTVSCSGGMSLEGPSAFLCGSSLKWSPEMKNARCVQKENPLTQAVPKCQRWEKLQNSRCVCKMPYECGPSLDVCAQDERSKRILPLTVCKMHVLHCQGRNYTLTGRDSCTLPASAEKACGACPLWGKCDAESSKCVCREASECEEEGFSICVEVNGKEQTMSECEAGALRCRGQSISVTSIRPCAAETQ
UniProt P02748, residues 22-559: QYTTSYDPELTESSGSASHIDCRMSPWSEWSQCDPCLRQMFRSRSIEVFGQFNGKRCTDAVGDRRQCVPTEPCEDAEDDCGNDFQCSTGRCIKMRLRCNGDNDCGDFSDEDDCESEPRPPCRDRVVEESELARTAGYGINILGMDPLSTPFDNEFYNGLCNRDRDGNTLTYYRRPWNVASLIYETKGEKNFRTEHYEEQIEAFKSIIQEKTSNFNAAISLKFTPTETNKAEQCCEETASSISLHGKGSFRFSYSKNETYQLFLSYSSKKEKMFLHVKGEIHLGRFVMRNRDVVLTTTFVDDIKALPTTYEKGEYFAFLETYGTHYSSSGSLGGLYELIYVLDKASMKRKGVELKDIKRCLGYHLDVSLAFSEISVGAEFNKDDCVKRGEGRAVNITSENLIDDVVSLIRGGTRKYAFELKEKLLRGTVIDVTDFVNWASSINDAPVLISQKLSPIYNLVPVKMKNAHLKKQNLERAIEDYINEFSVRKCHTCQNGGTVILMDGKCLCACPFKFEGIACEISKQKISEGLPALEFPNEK
UniProt P07357: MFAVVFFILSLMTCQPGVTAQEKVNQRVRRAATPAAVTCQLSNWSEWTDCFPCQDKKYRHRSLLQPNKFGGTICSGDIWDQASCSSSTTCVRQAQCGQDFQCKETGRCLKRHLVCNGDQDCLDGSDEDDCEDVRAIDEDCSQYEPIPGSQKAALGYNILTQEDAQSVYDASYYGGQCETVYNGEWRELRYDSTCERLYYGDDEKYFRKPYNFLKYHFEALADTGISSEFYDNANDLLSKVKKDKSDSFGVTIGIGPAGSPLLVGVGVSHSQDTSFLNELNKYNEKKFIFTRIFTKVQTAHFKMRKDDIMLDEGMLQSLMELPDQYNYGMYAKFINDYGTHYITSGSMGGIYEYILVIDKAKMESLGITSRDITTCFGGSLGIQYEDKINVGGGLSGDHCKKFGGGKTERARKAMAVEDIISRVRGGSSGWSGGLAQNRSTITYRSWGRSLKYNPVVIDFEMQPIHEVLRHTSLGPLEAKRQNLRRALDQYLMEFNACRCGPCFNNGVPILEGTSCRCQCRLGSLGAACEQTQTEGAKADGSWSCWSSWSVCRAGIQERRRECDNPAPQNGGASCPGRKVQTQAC

Tests used:
Complement C5 = Complement C5 (UniProt P01031); assay: SPR; MAC assembly assay, Biacore 8K, HBS-EP+; anti-C5 antibody amine coupled to a CM5 chip, C5 or C5b6 captured at 4 nM; C7, C8 and C9 flowed over in succession at 4, 8 and 50 nM, also with single components left out; both purified
[1] = target: C5b6 with bound C7, assembled on the SPR chip (UniProt P01031); assay: as above

Row | binding (Complement C5) | binding [1] | Substance
1 | no binding (tested: 4 nM) |  | Complement C7 (from UniProt P10643 23-843)
2 | no binding (tested: 50 nM) | no binding (tested: 50 nM) | Complement C9 (from UniProt P02748 22-559)
3 | no binding (tested: 8 nM) |  | Complement C8 (from UniProt P07357 31-584; P07358 55-591; P07360 21-202)
